For two molecules, binding results are on record in patent US20160046705A1 (Amgen, published 2016).

This experiment concerns the target sclerostin (species not stated in the assay) (Homo sapiens (Human)). The experiment in a line: co-immunoprecipitation of LRP4 and sclerostin in the presence of antibody.

No constants are given. Whether binding was seen depends on the method and setting. Binding seen in cells or lysates may run through a third protein. Binding calls can cover weak binding; strength is not graded here.

B1: 27H6 (antibody, V domains shown)
VH: EVQLVESGGGLVQPGGSLRLSCAASGFTFSSYSMNWVRQAPGKGLEWVSYISSSGSSIYYADSVKGRFTISRDNAKNSLYLQMNSLRDEDTAVYYCARERYYGDTPFDYWGQGTLVTVSS
VL: DIVMTQTPLSLPVTPGEPASISCRSSQSLLNSVDGSTNLDWYLQKPGQSPQLLIYTLSYRASGVPDRFSGSGSGTDFTLKISRVEAEDVGVYYCMQRIEFPLTFGGGTKVEIK
notes: also called sclerostin antibody 27H6
Regarding B1, the binding result was “binds”.

B2: 19D11 (antibody, V domains shown)
VH: EVQLVESGGGLVQPGGSLRLSCAASGFTFSSYDMHWVRQATGKGLEWVSAIGTAGDTYYAGSVKGRFTISRENAKNSLYLQMNSLRVGDTAVYYCARSWGEGNYYFYYGMDVWGQGTTVTVSS
VL: SYVLTQPPSVSVAPGQTARITCGGDNIGSISVHWYQQKPGQAPVLVVYDDSDRPSGIPERFSGSNSGNTATLTISWVEAGDEADYYCQVWDSSIDHPVLFGGGTKLTVL
Regarding B2, the binding entry is recorded as “binds”.
